Values from PubChem BioAssay AID1224826 (NIAID, 2016).
In all, the deposit lists about 17,000 reagents; shown is an unselected part. About 1,110 of them (6.6%) count as active. 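Active means lowered or raised reporter signal; replicate intensities are raw and not normalised per plate.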 The numbers tell different reagents against one gene apart. Not all columns of the deposit are shown.

- Screen: 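Regulators of Tlr4 signalling leading to Tnf-alpha expression in macrophages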 (primary screen)
- Cells: RAW264.7 G9 macrophages from mouse bearing reporters for p65 (GFP) and the Tnf promoter (mCherry)
- Reagent: siRNA pool against mouse genes, 100 nM
- Time to read-out: 16 h of LPS stimulation, after 2 days of siRNA transfection
- Challenge: bacterial lipopolysaccharide (Salmonella minnesota R595), 10 ng/ml
- Measured: 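Imaged Tnf reporter mCherry in nuclei, minus background, normalised per plate to the median and expressed as robust z-scores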
- Scale: Tnf reporter robust z-score: higher = stronger Tnf promoter reporter signal after LPS
- Call rule: 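a well counts as active at a score of -1.3 or below (Tlr4 knock-down control median) or above 3 (raised signal); controls and wells holding fewer than 50 cells are excluded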
- Meaning of the calls: active = Tnf reporter clearly lowered or raised; inactive = no clear change in Tnf reporter

What did the screen give for Qprt?
Tnf reporter robust z-score: 0.24; fewer than 50 cells in well: enough cells in well; activity call: inactive

How did the screen score Pheta1?
fewer than 50 cells in well: fewer than 50 cells per well; well left out of calls; activity call: inactive

For Armc10, what does the deposit list?
Tnf reporter robust z-score: 0; fewer than 50 cells in well: enough cells in well; activity call: inactive

What is on record for Tcea1?
Tnf reporter robust z-score: 0.14; fewer than 50 cells in well: enough cells in well; activity call: inactive

Which result is listed for Smr3a #1?
fewer than 50 cells in well: fewer than 50 cells per well; well left out of calls; activity call: inactive

How did the screen score Smr3a #2?
fewer than 50 cells in well: fewer than 50 cells per well; well left out of calls; activity call: inactive

Which result is listed for Uggt2?
Tnf reporter robust z-score: 1.23; fewer than 50 cells in well: enough cells in well; activity call: inactive

For H2-Oa, how do the results read?
Tnf reporter robust z-score: -0.39; fewer than 50 cells in well: enough cells in well; activity call: inactive

What did the screen give for Tspyl5?
Tnf reporter robust z-score: 0.14; fewer than 50 cells in well: enough cells in well; activity call: inactive

What is on record for Tafa5?
Tnf reporter robust z-score: -0.54; fewer than 50 cells in well: enough cells in well; activity call: inactive

How did the screen score Ddost?
fewer than 50 cells in well: fewer than 50 cells per well; well left out of calls; activity call: inactive

Which result is listed for Rbbp8nl?
fewer than 50 cells in well: fewer than 50 cells per well; well left out of calls; activity call: inactive

Laid out differently: entries from further up.
{"gene knocked down": "H2-Oa", "pool no.": 1, "Tnf reporter robust z-score": -0.39, "fewer than 50 cells in well": "enough cells in well", "activity call": "inactive"}
{"gene knocked down": "Tspyl5", "pool no.": 1, "Tnf reporter robust z-score": 0.14, "fewer than 50 cells in well": "enough cells in well", "activity call": "inactive"}
